# Measurements reported in PubChem BioAssay AID1053208 (Peter MacCallum Cancer Centre, 2014)
# Screen: 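Synthetic lethal interactions between gene loss and doxorubicin in osteosarcoma cells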 (primary screen)
# Cell system: mouse osteosarcoma cells, early-passage culture from an engineered mouse model of fibroblastic bone tumour
# Reagents: siRNA pool against mouse genes, 40 nM
# Duration: about 120 h (48 h before drug, then 72 h with drug)
# Treatment: doxorubicin 100 nM for 72 h, roughly 30-40% inhibitory dose
# Read-out: 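Viability read as ATP luminescence after 72 h of 100 nM doxorubicin or none, duplicate wells averaged, scaled to non-targeting siRNA, then expressed as robust z-scores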
# Reading the numbers: viability z-score with doxorubicin: higher = more viable cells under doxorubicin; viability z-score without drug: higher = more viable cells with knock-down alone
# Rule for the call: 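a pool counts as active when its viability z-score with doxorubicin is -2 or below and its z-score without drug lies between -2 and 2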
# The deposit covers about 17,000 reagents; this is a part drawn at random. Of all reagents, 788 (4.7%) are marked active. 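Calls rest on z-score classes alone; an extra cut-off of viability at most 70% of control was not applied to them.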 The numbers tell different reagents against one gene apart. Further read-outs or replicates are left out here.
Target gene,pool no.,combined z-score class,viability z-score with doxorubicin,viability z-score without drug,call
Pcyt2,1,low cell count with doxorubicin only,-2.14,1.35,active
Smim10l2a,1,low cell count without drug only,1.12,-2.87,inactive
Fmo1,1,no change with or without drug,-0.9,0.67,inactive
Ms4a6d,1,low cell count without drug only,-1.91,-2.02,inactive
Ms4a6d,2,no change with or without drug,-0.34,-0.34,inactive
Or4f57,1,low cell count with doxorubicin only,-2.14,-1.52,active
Lrtm2,1,high cell count without drug only,-0.11,2.53,inactive
Birc2,1,high cell count with doxorubicin only,2.14,0.67,inactive
Mcptl,1,no change with or without drug,-1.35,-1.18,inactive
Myl9,1,no change with or without drug,0.56,-0.51,inactive
Tmem130,1,no change with or without drug,0.22,-0.17,inactive
Prl2c2,1,no change with or without drug,0.45,-1.52,inactive
Il2rg,1,no change with or without drug,-0.67,-0.84,inactive
Ddx55,1,no change with or without drug,0.67,-1.01,inactive
Klhl15,1,no change with or without drug,0.22,0.84,inactive
Map4k4,1,no change with or without drug,-0.34,0.84,inactive
Sorbs3,1,no change with or without drug,-1.12,-0.51,inactive
Hmgn1,1,no change with or without drug,0.34,-1.18,inactive
Dnajb9,1,no change with or without drug,0,0.67,inactive
Fam20c,1,no change with or without drug,0.9,0.17,inactive
Ypel3,1,no change with or without drug,-1.35,-0.67,inactive
Arl1,1,low cell count without drug only,-0.34,-2.53,inactive
Rhox9,1,no change with or without drug,-0.22,0.51,inactive
Braf,1,no change with or without drug,0,0.51,inactive
Atp11a,1,no change with or without drug,0,-0.17,inactive
Aven,1,no change with or without drug,-0.22,1.52,inactive
Cdhr5,1,no change with or without drug,0,-0.84,inactive
Or1l4,1,no change with or without drug,-0.56,-0.51,inactive
Or11h4,1,no change with or without drug,-0.22,-0.67,inactive
Usp45,1,no change with or without drug,0.9,-0.17,inactive
Prg3,1,no change with or without drug,1.57,1.01,inactive
Pygl,1,no change with or without drug,-0.79,-0.17,inactive
Vmn1r73,1,no change with or without drug,-0.45,0,inactive
A830039N20Rik,1,no change with or without drug,0.22,-0.17,inactive

8 entries from above, sorted by “viability z-score with doxorubicin”, lowest first:
Target gene,pool no.,combined z-score class,viability z-score with doxorubicin,viability z-score without drug,call
Or1l4,1,no change with or without drug,-0.56,-0.51,inactive
Aven,1,no change with or without drug,-0.22,1.52,inactive
Or11h4,1,no change with or without drug,-0.22,-0.67,inactive
Braf,1,no change with or without drug,0,0.51,inactive
Atp11a,1,no change with or without drug,0,-0.17,inactive
Cdhr5,1,no change with or without drug,0,-0.84,inactive
Usp45,1,no change with or without drug,0.9,-0.17,inactive
Prg3,1,no change with or without drug,1.57,1.01,inactive

The list goes on.
Target gene,pool no.,combined z-score class,viability z-score with doxorubicin,viability z-score without drug,call
Ranbp2,1,no change with or without drug,0.67,1.01,inactive
Ddo,1,no change with or without drug,-0.9,-0.84,inactive
Card14,1,no change with or without drug,-1.24,-1.18,inactive
C230012O17Rik,1,no change with or without drug,0.56,1.85,inactive
Ube2k,1,high cell count without drug only,1.12,2.7,inactive
Ap2m1,1,no change with or without drug,0.9,0.51,inactive
Prkd3,1,no change with or without drug,0.56,0,inactive
Adh1,1,high cell count without drug only,0.79,2.53,inactive
Rhoj,1,no change with or without drug,1.12,1.52,inactive
Or13a27,1,no change with or without drug,-0.67,-0.34,inactive
Rhobtb3,1,no change with or without drug,0.79,0.34,inactive
Prdx5,1,no change with or without drug,0.9,1.35,inactive
Il36b,1,no change with or without drug,-0.9,-1.52,inactive
Gas6,1,no change with or without drug,0.11,-0.17,inactive
Cyp4f14,1,no change with or without drug,0.22,-0.67,inactive
Gcg,1,no change with or without drug,-0.9,0.17,inactive
Trim30d,1,no change with or without drug,-1.12,-0.67,inactive
Rfc1,1,no change with or without drug,-1.91,-1.01,inactive
Arrdc3,1,no change with or without drug,0.79,0.34,inactive
Or4d1,1,no change with or without drug,-1.01,-0.17,inactive
Mpi,1,no change with or without drug,-0.79,-0.17,inactive
Scfd2,1,no change with or without drug,-0.45,0.51,inactive
Mfng,1,no change with or without drug,1.12,0.84,inactive
Iffo1,1,no change with or without drug,-0.67,-0.51,inactive
Nr1h2,1,no change with or without drug,0,-0.17,inactive
Smarce1,1,no change with or without drug,-1.57,-0.84,inactive
Oog1,1,no change with or without drug,-0.11,0.17,inactive
Ikbkg,1,no change with or without drug,1.35,0.51,inactive
Zrsr2,1,no change with or without drug,-1.12,-1.69,inactive
